Experimental findings from paper PMC4332150 are described below.

Amino acid sequences for entries named in this document (tags omitted).
UniProt P05412: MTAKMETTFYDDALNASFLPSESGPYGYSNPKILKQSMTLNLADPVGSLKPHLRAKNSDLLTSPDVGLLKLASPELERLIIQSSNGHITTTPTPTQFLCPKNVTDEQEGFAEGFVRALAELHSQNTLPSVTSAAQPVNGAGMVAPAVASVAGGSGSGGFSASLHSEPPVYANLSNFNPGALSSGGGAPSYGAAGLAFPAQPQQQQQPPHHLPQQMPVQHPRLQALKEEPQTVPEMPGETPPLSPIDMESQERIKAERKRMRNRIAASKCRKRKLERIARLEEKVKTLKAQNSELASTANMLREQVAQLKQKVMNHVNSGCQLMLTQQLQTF

No constants are given. Whether binding was seen depends on the method and setting. In cells and extracts the contact can be indirect. Here binding means that the protein was enriched with, or labelled near, the bait; the list need not be complete. For some assays here: No binding means not detected with the bait. For some assays here: Where a sequence is shown, tags or fusion partners need not be part of it.

First the molecules themselves.
B1: CREB5 (endogenous) (protein, UniProt Q02930 1-508)
chain: MIYEESKMNLEQERPFVCSAPGCSQRFPTEDHLMIHRHKHEMTLKFPSIKTDNMLSDQTPTPTRFLKNCEEVGLFSELDCSLEHEFRKAQEEESSKRNISMHNAVGGAMTGPGTHQLSSARLPNHDTNVVIQQAMPSPQSSSVITQAPSTNRQIGPVPGSLSSLLHLHNRQRQPMPASMPGTLPNPTMPGSSAVLMPMERQMSVNSSIMGMQGPNLSNPCASPQVQPMHSEAKMRLKAALTHHPAAMSNGNMNTMGHMMEMMGSRQDQTPHHHMHSHPHQHQTLPPHHPYPHQHQHPAHHPHPQPHHQQNHPHHHSHSHLHAHPAHHQTSPHPPLHTGNQAQVSPATQQMQPTQTIQPPQPTGGRRRRVVDEDPDERRRKFLERNRAAATRCRQKRKVWVMSLEKKAEELTQTNMQLQNEVSMLKNEVAQLKQLLLTHKDCPITAMQKESQGYLSPESSPPASPVPACSQQQVIQHNTITTSSSVSEVVGSSTLSQLTTHRTDLNPIL
B2: C22orf28 (endogenous) (protein, UniProt Q9Y3I0 1-505)
chain: MSRSYNDELQFLEKINKNCWRIKKGFVPNMQVEGVFYVNDALEKLMFEELRNACRGGGVGGFLPAMKQIGNVAALPGIVHRSIGLPDVHSGYGFAIGNMAAFDMNDPEAVVSPGGVGFDINCGVRLLRTNLDESDVQPVKEQLAQAMFDHIPVGVGSKGVIPMNAKDLEEALEMGVDWSLREGYAWAEDKEHCEEYGRMLQADPNKVSARAKKRGLPQLGTLGAGNHYAEIQVVDEIFNEYAAKKMGIDHKGQVCVMIHSGSRGLGHQVATDALVAMEKAMKRDKIIVNDRQLACARIASPEGQDYLKGMAAAGNYAWVNRSSMTFLTRQAFAKVFNTTPDDLDLHVIYDVSHNIAKVEQHVVDGKERTLLVHRKGSTRAFPPHHPLIAVDYQLTGQPVLIGGTMGTCSYVLTGTEQGMTETFGTTCHGAGRALSRAKSRRNLDFQDVLDKLADMGIAIRVASPKLVMEEAPESYKNVTDVVNTCHDAGISKKAIKLRPIAVIKG
B3: IARS (endogenous) (protein, UniProt P41252 1-1262)
chain: MLQQVPENINFPAEEEKILEFWTEFNCFQECLKQSKHKPKFTFYDGPPFATGLPHYGHILAGTIKDIVTRYAHQSGFHVDRRFGWDCHGLPVEYEIDKTLGIRGPEDVAKMGITEYNNQCRAIVMRYSAEWKSTVSRLGRWIDFDNDYKTLYPQFMESVWWVFKQLYDKGLVYRGVKVMPFSTACNTPLSNFESHQNYKDVQDPSVFVTFPLEEDETVSLVAWTTTPWTLPSNLAVCVNPEMQYVKIKDVARGRLLILMEARLSALYKLESDYEILERFPGAYLKGKKYRPLFDYFLKCKENGAFTVLVDNYVKEEEGTGVVHQAPYFGAEDYRVCMDFNIIRKDSLPVCPVDASGCFTTEVTDFAGQYVKDADKSIIRTLKEQGRLLVATTFTHSYPFCWRSDTPLIYKAVPSWFVRVENMVDQLLRNNDLCYWVPELVREKRFGNWLKDARDWTISRNRYWGTPIPLWVSDDFEEVVCIGSVAELEELSGAKISDLHRESVDHLTIPSRCGKGSLHRISEVFDCWFESGSMPYAQVHYPFENKREFEDAFPADFIAEGIDQTRGWFYTLLVLATALFGQPPFKNVIVNGLVLASDGQKMSKRKKNYPDPVSIIQKYGADALRLYLINSPVVRAENLRFKEEGVRDVLKDVLLPWYNAYRFLIQNVLRLQKEEEIEFLYNENTVRESPNITDRWILSFMQSLIGFFETEMAAYRLYTVVPRLVKFVDILTNWYVRMNRRRLKGENGMEDCVMALETLFSVLLSLCRLMAPYTPFLTELMYQNLKVLIDPVSVQDKDTLSIHYLMLPRVREELIDKKTESAVSQMQSVIELGRVIRDRKTIPIKYPLKEIVVIHQDPEALKDIKSLEKYIIEELNVRKVTLSTDKNKYGIRLRAEPDHMVLGKRLKGAFKAVMTSIKQLSSEELEQFQKTGTIVVEGHELHDEDIRLMYTFDQATGGTAQFEAHSDAQALVLLDVTPDQSMVDEGMAREVINRIQKLRKKCNLVPTDEITVYYKAKSEGTYLNSVIESHTEFIFTTIKAPLKPYPVSPSDKVLIQEKTQLKGSELEITLTRGSSLPGPACAYVNLNICANGSEQGGVLLLENPKGDNRLDLLKLKSVVTSIFGVKNTELAVFHDETEIQNQTDLLSLSGKTLCVTAGSAPSLINSSSTLLCQYINLQLLNAKPQECLMGTVGTLLLENPLGQNGLTHQGLLYEAAKVFGLRSRKLKLFLNETQTQEITEDIPVKTLNMKTVYVSVLPTTADF
B4: PARS2 (endogenous) (protein, UniProt Q7L3T8 30-475)
chain: HHCAPRRGRRLLLSRVFQPQNLREDRVLSLQDKSDDLTCKSQRLMLQVGLIYPASPGCYHLLPYTVRAMEKLVRVIDQEMQAIGGQKVNMPSLSPAELWQATNRWDLMGKELLRLRDRHGKEYCLGPTHEEAITALIASQKKLSYKQLPFLLYQVTRKFRDEPRPRFGLLRGREFYMKDMYTFDSSPEAAQQTYSLVCDAYCSLFNKLGLPFVKVQADVGTIGGTVSHEFQLPVDIGEDRLAICPRCSFSANMETLDLSQMNCPACQGPLTKTKGIEVGHTFYLGTKYSSIFNAQFTNVCGKPTLAEMGCYGLGVTRILAAAIEVLSTEDCVRWPSLLAPYQACLIPPKKGSKEQAASELIGQLYDHITEAVPQLHGEVLLDDRTHLTIGNRLKDANKFGYPFVIIAGKRALEDPAHFEVWCQNTGEVAFLTKDGVMDLLTPVQTV
B5: S100A7 (endogenous) (protein, UniProt P31151 1-101)
chain: MSNTQAERSIIGMIDMFHKYTRRDDKIEKPSLLTMMKENFPNFLSACDKKGTNYLADVFEKKDKNEDKKIDFSEFLSLLGDIATDYHKQSHGAAPCSGGSQ
B6: QARS (endogenous) (protein, UniProt P47897 1-775)
chain: MAALDSLSLFTSLGLSEQKARETLKNSALSAQLREAATQAQQTLGSTIDKATGILLYGLASRLRDTRRLSFLVSYIASKKIHTEPQLSAALEYVRSHPLDPIDTVDFERECGVGVIVTPEQIEEAVEAAINRHRPQLLVERYHFNMGLLMGEARAVLKWADGKMIKNEVDMQVLHLLGPKLEADLEKKFKVAKARLEETDRRTAKDVVENGETADQTLSLMEQLRGEALKFHKPGENYKTPGYVVTPHTMNLLKQHLEITGGQVRTRFPPEPNGILHIGHAKAINFNFGYAKANNGICFLRFDDTNPEKEEAKFFTAICDMVAWLGYTPYKVTYASDYFDQLYAWAVELIRRGLAYVCHQRGEELKGHNTLPSPWRDRPMEESLLLFEAMRKGKFSEGEATLRMKLVMEDGKMDPVAYRVKYTPHHRTGDKWCIYPTYDYTHCLCDSIEHITHSLCTKEFQARRSSYFWLCNALDVYCPVQWEYGRLNLHYAVVSKRKILQLVATGAVRDWDDPRLFTLTALRRRGFPPEAINNFCARVGVTVAQTTMEPHLLEACVRDVLNDTAPRAMAVLESLRVIITNFPAAKSLDIQVPNFPADETKGFHQVPFAPIVFIERTDFKEEPEPGFKRLAWGQPVGLRHTGYVIELQHVVKGPSGCVESLEVTCRRADAGEKPKAFIHWVSQPLMCEVRLYERLFQHKNPEDPTEVPGGFLSDLNLASLHVVDAALVDCSVALAKPFDKFQFERLGYFSVDPDSHQGKLVFNRTVTLKEDPGKV
B7: DARS (endogenous) (protein, UniProt P14868 1-501)
chain: MPSASASRKSQEKPREIMDAAEDYAKERYGISSMIQSQEKPDRVLVRVRDLTIQKADEVVWVRARVHTSRAKGKQCFLVLRQQQFNVQALVAVGDHASKQMVKFAANINKESIVDVEGVVRKVNQKIGSCTQQDVELHVQKIYVISLAEPRLPLQLDDAVRPEAEGEEEGRATVNQDTRLDNRVIDLRTSTSQAVFRLQSGICHLFRETLINKGFVEIQTPKIISAASEGGANVFTVSYFKNNAYLAQSPQLYKQMCICADFEKVFSIGPVFRAEDSNTHRHLTEFVGLDIEMAFNYHYHEVMEEIADTMVQIFKGLQERFQTEIQTVNKQFPCEPFKFLEPTLRLEYCEALAMLREAGVEMGDEDDLSTPNEKLLGHLVKEKYDTDFYILDKYPLAVRPFYTMPDPRNPKQSNSYDMFMRGEEILSGAQRIHDPQLLTERALHHGIDLEKIKAYIDSFRFGAPPHAGGGIGLERVTMLFLGLHNVRQTSMFPRDPKRLTP

The first assay deals with JUN (endogenous) (human (endogenous in HEK293T)) (UniProt P05412). The assay can be described thus: affinity purification with mass spectrometry; AP/MS with antibodies against endogenous JUN; soluble fraction.
For B1, the binding result is listed as “binds”.

For another assay the target is unchanged. Nature of the assay: affinity purification with mass spectrometry; AP/MS with antibodies against endogenous JUN; chromatin fraction.
Consider B1, for which the binding entry is given as “binds”.

The next assay deals with T1, SFB-tagged FOXM1 (human) (UniProt Q08050).
T1 sequence: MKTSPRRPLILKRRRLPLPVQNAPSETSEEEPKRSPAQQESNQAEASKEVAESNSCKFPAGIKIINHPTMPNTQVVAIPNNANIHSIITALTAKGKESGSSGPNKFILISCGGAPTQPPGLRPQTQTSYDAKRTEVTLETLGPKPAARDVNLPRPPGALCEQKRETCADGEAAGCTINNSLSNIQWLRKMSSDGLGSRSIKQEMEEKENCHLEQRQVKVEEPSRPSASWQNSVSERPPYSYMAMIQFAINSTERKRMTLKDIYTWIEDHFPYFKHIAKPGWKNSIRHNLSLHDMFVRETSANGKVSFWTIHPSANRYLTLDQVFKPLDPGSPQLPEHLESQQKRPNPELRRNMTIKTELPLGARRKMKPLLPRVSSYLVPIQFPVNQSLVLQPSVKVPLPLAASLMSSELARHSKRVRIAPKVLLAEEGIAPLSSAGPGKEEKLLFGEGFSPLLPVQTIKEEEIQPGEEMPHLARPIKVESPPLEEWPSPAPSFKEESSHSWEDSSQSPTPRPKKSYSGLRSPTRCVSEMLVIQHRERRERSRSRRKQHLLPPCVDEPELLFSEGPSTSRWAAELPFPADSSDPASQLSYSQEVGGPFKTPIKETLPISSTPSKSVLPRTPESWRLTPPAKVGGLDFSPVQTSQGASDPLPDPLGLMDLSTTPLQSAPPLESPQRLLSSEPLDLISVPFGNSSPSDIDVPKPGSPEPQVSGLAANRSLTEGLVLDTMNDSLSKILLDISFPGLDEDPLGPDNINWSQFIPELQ
The assay can be described thus: affinity purification with mass spectrometry; TAP (streptavidin beads, biotin elution, S-protein beads; NETN buffer) of C-terminally SFB-tagged bait from HEK293T; soluble fraction (supernatant of the NETN lysate); forward and reciprocal purifications.
B2: the binding result is listed as “binds”.
The same measure, in the same setting: in the case of B3 it was “binds”; in that of B4, “binds”; in that of B5, “no binding (only in the soluble fraction)”.
Consider B6, for which the binding entry was “binds”.
The same measure, in the same setting: in the case of B7 it was “binds”.

In the next assay the target is T1, SFB-tagged FOXM1 (human). Nature of the assay: affinity purification with mass spectrometry; TAP (streptavidin beads, biotin elution, S-protein beads; NETN buffer) of C-terminally SFB-tagged bait from HEK293T; chromatin fraction (pellet after NETN lysis, digested with TurboNuclease); forward and reciprocal purifications; some baits also after drug treatment.
Take B2: the binding result is given as “no binding (only in the chromatin fraction)”.
Still for that read-out and setting: then B3, with “no binding (only in the chromatin fraction)”; and B4, with “no binding (only in the chromatin fraction)”; and B5, with “binds”.
Same read-out and setting: then B6, with “no binding (only in the chromatin fraction)”; and B7, with “no binding (only in the chromatin fraction)”.
